Experimental data reported in the supplement of paper PMC10849652.
This is one part of the list.

Chains of the proteins cited; added tags and fusions are not shown. Lines headed by an entry give the natural chain unless they say otherwise; changes in a name come on top.
UniProt Q15058: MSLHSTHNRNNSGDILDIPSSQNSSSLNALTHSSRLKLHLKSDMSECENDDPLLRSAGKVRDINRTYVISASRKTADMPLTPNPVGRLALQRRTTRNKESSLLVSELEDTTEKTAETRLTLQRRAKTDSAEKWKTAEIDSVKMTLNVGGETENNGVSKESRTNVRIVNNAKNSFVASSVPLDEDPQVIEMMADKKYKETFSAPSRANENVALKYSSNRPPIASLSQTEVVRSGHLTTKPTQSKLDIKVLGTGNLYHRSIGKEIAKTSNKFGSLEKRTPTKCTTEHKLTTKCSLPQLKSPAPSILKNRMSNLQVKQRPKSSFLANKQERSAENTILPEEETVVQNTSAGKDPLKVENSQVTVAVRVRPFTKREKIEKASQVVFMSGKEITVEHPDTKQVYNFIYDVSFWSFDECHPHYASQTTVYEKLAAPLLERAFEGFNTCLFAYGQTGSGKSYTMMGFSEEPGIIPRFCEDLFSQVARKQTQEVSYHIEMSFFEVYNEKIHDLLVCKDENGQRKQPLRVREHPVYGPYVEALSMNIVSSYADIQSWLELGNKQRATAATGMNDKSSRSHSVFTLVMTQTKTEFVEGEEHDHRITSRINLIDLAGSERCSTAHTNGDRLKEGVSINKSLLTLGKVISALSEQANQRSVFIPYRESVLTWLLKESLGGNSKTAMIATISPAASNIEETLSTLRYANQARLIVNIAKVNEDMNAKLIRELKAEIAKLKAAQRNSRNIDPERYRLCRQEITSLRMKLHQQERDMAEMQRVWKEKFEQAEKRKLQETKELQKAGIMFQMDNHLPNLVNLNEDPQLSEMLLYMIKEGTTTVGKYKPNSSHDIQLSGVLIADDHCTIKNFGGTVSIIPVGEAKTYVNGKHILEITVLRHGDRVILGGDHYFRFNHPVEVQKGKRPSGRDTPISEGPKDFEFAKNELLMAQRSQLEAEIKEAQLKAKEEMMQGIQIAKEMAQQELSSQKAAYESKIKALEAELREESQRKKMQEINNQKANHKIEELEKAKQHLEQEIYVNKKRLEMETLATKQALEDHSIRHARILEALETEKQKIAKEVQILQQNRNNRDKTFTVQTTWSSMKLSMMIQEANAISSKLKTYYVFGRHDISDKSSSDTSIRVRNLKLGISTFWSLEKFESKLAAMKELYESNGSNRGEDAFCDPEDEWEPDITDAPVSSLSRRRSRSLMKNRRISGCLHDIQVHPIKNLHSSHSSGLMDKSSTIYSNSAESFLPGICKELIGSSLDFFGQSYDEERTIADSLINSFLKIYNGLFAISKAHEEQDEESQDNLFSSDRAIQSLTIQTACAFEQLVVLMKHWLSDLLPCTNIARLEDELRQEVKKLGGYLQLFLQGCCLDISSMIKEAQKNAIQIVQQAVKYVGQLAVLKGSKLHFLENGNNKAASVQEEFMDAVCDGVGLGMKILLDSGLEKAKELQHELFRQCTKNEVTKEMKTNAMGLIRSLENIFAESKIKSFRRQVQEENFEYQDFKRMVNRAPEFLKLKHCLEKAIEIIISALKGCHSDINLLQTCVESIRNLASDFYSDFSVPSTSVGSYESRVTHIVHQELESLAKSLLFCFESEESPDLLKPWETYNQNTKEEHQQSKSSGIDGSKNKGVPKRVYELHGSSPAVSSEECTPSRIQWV
UniProt P50748: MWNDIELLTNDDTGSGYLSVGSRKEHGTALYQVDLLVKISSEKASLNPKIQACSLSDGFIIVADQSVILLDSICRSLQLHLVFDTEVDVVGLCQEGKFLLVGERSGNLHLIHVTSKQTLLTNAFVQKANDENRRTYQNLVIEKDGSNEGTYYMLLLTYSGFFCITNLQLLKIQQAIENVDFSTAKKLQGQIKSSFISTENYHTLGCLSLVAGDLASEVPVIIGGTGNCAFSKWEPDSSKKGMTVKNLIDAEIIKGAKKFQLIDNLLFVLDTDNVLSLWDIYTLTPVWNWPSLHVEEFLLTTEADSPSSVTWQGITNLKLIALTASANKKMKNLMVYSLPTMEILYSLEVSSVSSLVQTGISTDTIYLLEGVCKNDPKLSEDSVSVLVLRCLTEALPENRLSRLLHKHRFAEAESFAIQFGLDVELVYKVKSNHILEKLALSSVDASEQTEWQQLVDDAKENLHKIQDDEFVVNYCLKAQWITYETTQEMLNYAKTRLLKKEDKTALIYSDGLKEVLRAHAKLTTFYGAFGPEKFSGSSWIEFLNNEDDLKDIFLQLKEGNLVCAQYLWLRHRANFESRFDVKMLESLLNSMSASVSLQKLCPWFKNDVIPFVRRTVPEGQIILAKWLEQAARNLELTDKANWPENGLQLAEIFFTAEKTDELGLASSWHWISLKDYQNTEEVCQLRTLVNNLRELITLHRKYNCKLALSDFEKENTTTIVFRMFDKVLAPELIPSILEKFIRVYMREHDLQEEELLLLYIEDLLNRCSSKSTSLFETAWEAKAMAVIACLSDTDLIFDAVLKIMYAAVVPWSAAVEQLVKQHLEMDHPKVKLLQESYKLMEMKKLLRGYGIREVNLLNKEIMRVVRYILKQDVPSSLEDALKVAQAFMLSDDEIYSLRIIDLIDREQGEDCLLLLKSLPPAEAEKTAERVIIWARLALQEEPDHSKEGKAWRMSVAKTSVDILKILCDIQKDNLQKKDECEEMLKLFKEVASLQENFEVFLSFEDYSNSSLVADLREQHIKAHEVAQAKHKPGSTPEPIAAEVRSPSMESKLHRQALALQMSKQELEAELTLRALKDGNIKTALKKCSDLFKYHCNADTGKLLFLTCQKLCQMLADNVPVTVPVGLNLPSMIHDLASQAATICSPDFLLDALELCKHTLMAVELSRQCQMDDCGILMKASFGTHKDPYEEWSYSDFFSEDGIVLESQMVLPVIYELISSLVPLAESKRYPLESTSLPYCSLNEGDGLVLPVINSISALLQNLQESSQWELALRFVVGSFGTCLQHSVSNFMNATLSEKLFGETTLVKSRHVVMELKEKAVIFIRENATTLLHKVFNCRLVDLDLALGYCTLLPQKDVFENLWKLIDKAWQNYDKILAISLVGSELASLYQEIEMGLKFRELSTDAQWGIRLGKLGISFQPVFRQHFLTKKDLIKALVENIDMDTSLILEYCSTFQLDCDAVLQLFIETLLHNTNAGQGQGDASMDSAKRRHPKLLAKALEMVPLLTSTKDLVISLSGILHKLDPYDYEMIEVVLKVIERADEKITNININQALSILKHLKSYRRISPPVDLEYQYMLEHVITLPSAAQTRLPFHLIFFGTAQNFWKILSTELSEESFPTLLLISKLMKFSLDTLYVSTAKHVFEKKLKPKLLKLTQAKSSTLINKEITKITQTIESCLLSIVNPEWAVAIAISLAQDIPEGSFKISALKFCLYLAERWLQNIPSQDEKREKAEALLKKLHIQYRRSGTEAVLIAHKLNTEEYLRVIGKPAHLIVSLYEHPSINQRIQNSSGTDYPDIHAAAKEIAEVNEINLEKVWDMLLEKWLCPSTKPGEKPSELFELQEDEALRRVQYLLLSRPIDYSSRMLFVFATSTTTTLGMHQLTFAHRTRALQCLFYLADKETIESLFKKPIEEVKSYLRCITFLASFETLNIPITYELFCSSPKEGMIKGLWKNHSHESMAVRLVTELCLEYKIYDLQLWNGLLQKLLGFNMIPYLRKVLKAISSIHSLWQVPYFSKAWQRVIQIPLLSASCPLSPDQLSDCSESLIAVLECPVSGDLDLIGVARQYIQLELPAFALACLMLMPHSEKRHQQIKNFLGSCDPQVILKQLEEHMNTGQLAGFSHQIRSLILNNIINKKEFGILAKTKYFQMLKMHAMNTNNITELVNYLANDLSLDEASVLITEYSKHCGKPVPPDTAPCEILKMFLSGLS
UniProt Q96SI1: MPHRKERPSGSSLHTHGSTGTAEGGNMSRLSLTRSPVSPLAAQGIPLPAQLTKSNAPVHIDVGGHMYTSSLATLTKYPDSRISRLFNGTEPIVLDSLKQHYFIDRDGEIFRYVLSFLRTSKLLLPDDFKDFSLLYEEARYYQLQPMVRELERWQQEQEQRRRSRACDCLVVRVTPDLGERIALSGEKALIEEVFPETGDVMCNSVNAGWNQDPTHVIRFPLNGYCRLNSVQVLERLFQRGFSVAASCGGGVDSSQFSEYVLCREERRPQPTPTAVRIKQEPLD
UniProt Q9H1H9: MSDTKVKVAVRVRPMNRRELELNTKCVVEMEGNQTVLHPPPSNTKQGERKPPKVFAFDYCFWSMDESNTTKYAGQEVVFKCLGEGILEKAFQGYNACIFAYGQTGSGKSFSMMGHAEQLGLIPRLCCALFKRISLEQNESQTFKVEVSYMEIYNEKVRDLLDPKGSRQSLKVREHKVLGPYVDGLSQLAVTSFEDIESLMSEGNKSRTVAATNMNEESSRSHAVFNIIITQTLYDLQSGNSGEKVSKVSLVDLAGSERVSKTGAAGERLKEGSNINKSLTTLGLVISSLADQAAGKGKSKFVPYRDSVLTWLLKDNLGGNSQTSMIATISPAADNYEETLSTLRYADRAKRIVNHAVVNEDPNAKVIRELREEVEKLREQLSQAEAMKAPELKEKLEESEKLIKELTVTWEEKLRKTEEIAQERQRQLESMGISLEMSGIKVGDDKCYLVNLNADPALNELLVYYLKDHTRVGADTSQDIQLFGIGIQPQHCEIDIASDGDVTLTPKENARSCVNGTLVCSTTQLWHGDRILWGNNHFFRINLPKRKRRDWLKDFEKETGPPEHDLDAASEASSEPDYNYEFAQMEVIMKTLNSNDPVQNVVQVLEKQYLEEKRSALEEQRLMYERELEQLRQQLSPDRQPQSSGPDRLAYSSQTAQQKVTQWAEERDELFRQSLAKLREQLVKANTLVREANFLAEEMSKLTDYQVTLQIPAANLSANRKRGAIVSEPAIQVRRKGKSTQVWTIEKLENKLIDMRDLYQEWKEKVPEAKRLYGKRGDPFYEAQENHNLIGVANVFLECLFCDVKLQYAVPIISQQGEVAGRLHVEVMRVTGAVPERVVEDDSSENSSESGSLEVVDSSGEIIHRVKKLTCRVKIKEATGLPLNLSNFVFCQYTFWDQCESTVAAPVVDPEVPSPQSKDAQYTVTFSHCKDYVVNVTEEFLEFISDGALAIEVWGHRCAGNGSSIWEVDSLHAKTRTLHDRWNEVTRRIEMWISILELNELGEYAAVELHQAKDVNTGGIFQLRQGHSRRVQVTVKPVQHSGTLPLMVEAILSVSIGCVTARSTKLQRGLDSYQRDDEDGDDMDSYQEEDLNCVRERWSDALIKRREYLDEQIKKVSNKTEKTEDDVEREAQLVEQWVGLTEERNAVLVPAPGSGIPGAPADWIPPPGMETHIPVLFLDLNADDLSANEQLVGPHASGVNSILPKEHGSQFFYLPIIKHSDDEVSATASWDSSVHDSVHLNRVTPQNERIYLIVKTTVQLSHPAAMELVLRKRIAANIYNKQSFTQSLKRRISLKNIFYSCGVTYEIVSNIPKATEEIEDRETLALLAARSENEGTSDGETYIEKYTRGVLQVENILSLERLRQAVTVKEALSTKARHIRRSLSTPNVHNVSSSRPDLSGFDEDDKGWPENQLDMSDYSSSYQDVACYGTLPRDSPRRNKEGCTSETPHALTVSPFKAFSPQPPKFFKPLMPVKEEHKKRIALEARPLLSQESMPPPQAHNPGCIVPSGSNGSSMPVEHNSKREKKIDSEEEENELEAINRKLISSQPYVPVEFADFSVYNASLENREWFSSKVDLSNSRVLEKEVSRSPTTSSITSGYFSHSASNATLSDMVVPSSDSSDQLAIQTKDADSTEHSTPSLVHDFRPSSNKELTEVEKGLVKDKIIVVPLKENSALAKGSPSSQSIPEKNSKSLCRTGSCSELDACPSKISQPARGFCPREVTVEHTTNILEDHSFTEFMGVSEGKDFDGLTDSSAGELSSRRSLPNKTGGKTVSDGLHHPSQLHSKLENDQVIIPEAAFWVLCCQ
UniProt Q8IXQ5, whole entry, looked up: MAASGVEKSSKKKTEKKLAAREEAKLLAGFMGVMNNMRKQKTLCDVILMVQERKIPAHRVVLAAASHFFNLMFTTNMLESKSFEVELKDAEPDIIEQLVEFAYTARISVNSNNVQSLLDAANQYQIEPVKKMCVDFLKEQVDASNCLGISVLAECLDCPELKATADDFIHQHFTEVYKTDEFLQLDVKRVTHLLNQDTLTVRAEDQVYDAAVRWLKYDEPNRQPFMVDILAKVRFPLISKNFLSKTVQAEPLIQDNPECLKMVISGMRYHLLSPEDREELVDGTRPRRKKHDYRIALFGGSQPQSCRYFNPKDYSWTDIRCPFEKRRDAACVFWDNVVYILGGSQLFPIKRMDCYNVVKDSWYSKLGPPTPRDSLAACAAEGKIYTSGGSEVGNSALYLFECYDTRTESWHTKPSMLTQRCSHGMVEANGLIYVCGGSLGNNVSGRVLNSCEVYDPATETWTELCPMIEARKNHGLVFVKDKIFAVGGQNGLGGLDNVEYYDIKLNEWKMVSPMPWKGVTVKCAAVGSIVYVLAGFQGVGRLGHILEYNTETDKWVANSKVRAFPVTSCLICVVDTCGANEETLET

What follows are targets tested with c1ccc([C@@H]2C[C@H]2NC2CCNCC2)cc1 (assay: log2 fold change, soluble protein after heating vs DMSO (PISA); higher = thermal stabilisation; K562 cells, 10 uM, 30 min; active = over 0.2 and 3.5 SD of the protein, either way, in both replicates (recomputed)).
How it was run: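 K562 cells at 2×10^6 cells/mL were treated for 30 min with 10 μM compound, and aliquots were heated for 3 min over 48°C-58°C before pooling. Extraction used PBS with 0.5% NP-40 at 4°C, and soluble protein was the supernatant after 21,000xg for 90 min, measured by TMTpro 16plex LC-MS/MS with channel sums equalised. Thermal stability values, relative to control samples and from duplicates, are log2 fold changes.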
KEAP1 (UniProt Q14145) was tested, and the log2 fold change was inactive: 0.001.
For KPNA1 (UniProt P52294), the log2 fold change was inactive: -0.001.
For KIFBP (UniProt Q96EK5), the log2 fold change was inactive: 0.005.
For KIAA0754 (UniProt O94854), the log2 fold change was inactive: -0.165.
In the case of KLHDC8B (UniProt Q8IXV7), the log2 fold change is reported as inactive: -0.111.
With KIF14 (UniProt Q15058) the log2 fold change was inactive: -0.101.
KHK isoform 2 (UniProt P50053) was tested, and the log2 fold change was inactive: 0.01.
KNTC1 (UniProt P50748) was tested, and the log2 fold change was inactive: -0.008.
With JAG2 (UniProt Q9Y219) the log2 fold change was inactive: -0.081.
JPT2 isoform 3 (UniProt Q9H910) was tested, and the log2 fold change was inactive: 0.041.
In the case of KIF5B (UniProt P33176), the log2 fold change is reported as inactive: -0.041.
KCTD15 (UniProt Q96SI1) was tested, and the log2 fold change was inactive: 0.
In the case of KCNN4 (UniProt O15554), the log2 fold change is reported as inactive: -0.216.
KPNA2 (UniProt P52292) was tested, and the log2 fold change was inactive: 0.028.
In the case of KCTD5 (UniProt Q9NXV2), the log2 fold change is reported as inactive: -0.018.
For KSR1 (UniProt Q8IVT5), the log2 fold change was inactive: 0.018.
For KIDINS220 (UniProt Q9ULH0), the log2 fold change was inactive: 0.
In the case of KCT2 (UniProt Q8NC54), the log2 fold change is reported as inactive: 0.028.
In the case of KRIT1 (UniProt O00522), the log2 fold change is reported as inactive: -0.239.
For KCTD3 (UniProt Q9Y597), the log2 fold change was inactive: 0.064.
KIF13A (UniProt Q9H1H9) was tested, and the log2 fold change was inactive: -0.027.
For KDSR (UniProt Q06136), the log2 fold change was inactive: 0.029.
With JUN (UniProt P05412) the log2 fold change was inactive: 0.405.
JUND (UniProt P17535) was tested, and the log2 fold change was inactive: 0.039.
For IWS1 (UniProt Q96ST2), the log2 fold change was inactive: -0.035.
In the case of KIAA1143 (UniProt Q96AT1), the log2 fold change is reported as inactive: 0.054.
KIAA0930 isoform 2 (UniProt Q6ICG6) was tested, and the log2 fold change was inactive: 0.286.
KATNB1 (UniProt Q9BVA0) was tested, and the log2 fold change was inactive: -0.026.
For KIF2C (UniProt Q99661), the log2 fold change was inactive: -0.029.
For KMT2D isoform 3 (UniProt O14686), the log2 fold change was inactive: 0.044.
With IVNS1ABP (UniProt Q9Y6Y0) the log2 fold change was inactive: -0.042.
KATNA1 (UniProt O75449) was tested, and the log2 fold change was inactive: 0.001.
For KIF13B (UniProt Q9NQT8), the log2 fold change was inactive: -0.21.
In the case of KLHDC3 (UniProt Q9BQ90), the log2 fold change is reported as inactive: -0.022.
JAK3 (UniProt P52333) was tested, and the log2 fold change was inactive: 0.032.
KIF11 (UniProt P52732) was tested, and the log2 fold change was inactive: -0.027.
In the case of KLHL7 (UniProt Q8IXQ5), the log2 fold change is reported as inactive: -0.039.
